# Results are given in words; binding and its absence hold for the method and conditions named. In cells and extracts the contact can be indirect. Some results given as binding are weak or reduced against the parent protein; the word gives no strength.
# Amino acid sequences for entries named in this document (tags omitted). A change or cut given only in a name is not applied to a line headed by its entry. Residues count along the entry.
# UniProt P06463: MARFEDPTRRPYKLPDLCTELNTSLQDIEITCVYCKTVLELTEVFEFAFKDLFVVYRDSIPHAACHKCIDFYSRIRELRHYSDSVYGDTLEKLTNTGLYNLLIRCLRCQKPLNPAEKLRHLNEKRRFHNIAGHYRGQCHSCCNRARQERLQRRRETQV
# UniProt Q9P0J0: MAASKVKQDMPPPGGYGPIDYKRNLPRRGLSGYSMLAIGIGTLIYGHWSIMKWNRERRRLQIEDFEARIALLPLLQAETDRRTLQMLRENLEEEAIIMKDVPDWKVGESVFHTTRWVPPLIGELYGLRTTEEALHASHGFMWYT
# GST-G19-Δ1 (1–35 aa): residues 1-35 of Q9P0J0
# UniProt Q05086: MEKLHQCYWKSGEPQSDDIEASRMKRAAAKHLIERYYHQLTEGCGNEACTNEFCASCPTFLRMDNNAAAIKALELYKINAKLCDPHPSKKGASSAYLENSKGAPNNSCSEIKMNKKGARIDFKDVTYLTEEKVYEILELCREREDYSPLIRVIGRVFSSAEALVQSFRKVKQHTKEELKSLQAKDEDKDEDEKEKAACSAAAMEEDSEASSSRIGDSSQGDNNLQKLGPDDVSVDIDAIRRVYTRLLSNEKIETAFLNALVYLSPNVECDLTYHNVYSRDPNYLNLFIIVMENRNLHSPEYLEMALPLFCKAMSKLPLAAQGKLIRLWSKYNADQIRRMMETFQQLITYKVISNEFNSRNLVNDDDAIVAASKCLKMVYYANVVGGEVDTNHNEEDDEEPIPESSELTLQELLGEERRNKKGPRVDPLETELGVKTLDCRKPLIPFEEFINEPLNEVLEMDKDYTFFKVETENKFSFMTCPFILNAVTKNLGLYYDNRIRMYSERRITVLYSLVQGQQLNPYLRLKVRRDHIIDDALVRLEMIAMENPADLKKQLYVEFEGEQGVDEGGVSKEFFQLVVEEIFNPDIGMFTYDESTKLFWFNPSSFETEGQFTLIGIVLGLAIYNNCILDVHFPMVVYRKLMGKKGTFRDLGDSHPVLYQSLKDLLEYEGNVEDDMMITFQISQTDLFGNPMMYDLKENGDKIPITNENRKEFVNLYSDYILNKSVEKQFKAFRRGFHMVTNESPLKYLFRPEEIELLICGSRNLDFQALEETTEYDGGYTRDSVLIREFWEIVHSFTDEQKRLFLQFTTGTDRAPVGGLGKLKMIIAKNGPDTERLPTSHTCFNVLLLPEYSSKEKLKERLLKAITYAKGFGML
# E6AP-Δ2 (287–521 aa): residues 290-524 of Q05086
# E6AP-Δ3 (522–872 aa): residues 525-875 of Q05086
# Assays:
# [1] = target: Flag-tagged HPV18 E6 protein (pET-18E6-Flag) (human papillomavirus type 18 (HPV18)) (UniProt P06463); experiment: pull-down; same experiment as a5, for the pair E6AP-Δ2 and 18E6 (both added in solution to GST-GRIM-19 beads; 10 ug E6AP-Δ2)
# [2] = target: GST-G19-Δ1 (1–35 aa) (human) (UniProt Q9P0J0); experiment: pull-down; 10 µg GST fusion protein immobilised on glutathione-agarose; incubated overnight at 4°C with lysate of E. coli BL21 expressing Flag-tagged or His-tagged protein; washed with PBS with 1% Triton X-100; Western blot; only the target purified
# [3] = target: GRIM-19 (human (endogenous in HeLa)) (UniProt Q9P0J0); experiment: co-IP; lysate of HeLa cells transfected with p18E6-Flag; IP with the indicated antibodies, Protein G-agarose, 4°C, washed with RIPA buffer; Western blot
# [4] = target: GRIM-19 (human (endogenous in HeLa)) (UniProt Q9P0J0); experiment: co-IP; HeLa cell lysate; IP with anti-GRIM-19 or normal IgG, Protein G-agarose, 4°C, washed with RIPA buffer; Western blot with anti-E6AP
substance,measurement,setting,value
E6AP-Δ2 (287–521 aa) (from UniProt Q05086-3 287-521) (domain or fragment),binding,[1],binds
E6AP-Δ3 (522–872 aa) (from UniProt Q05086-3 522-872) (domain or fragment),binding,[2],binds
Flag-tagged HPV18 E6 protein (pET-18E6-Flag) (from UniProt P06463 1-158),binding,[2],binds
Flag-tagged 18E6 protein (p18E6-Flag) (from UniProt P06463 1-158),binding,[3],binds
E6-associated protein (E6AP) (from UniProt Q05086 1-875),binding,[4],binds
